This is one part of the list.
Columns and labels:
Assay in all cases: log2 fold change, soluble protein after heating vs DMSO (PISA); higher = thermal stabilisation; K562 cells, 10 uM, 30 min; active = over 0.2 and 3.5 SD of the protein, either way, in both replicates (recomputed)
[1] = compound: C#Cc1cccc(Nc2ncnc3cc(OCCOC)c(OCCOC)cc23)c1 [erlotinib]
How it was run: (§1)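 Soluble protein was defined as the supernatant after 21,000xg for 90 min. It came from K562 cells at 2×10^6 cells/mL given 10 μM compound for 30 min, heated in aliquots for 3 min across 48°C-58°C, pooled, and extracted in PBS with 0.5% NP-40 at 4°C, and was quantified by TMTpro 16plex LC-MS/MS with equalised channel sums. Thermal stability against control samples, from duplicates, is reported as log2 fold change.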

Amino acid sequences for entries named in this document (tags omitted). A change or cut given only in a name is not applied to a line headed by its entry.
UniProt Q02218: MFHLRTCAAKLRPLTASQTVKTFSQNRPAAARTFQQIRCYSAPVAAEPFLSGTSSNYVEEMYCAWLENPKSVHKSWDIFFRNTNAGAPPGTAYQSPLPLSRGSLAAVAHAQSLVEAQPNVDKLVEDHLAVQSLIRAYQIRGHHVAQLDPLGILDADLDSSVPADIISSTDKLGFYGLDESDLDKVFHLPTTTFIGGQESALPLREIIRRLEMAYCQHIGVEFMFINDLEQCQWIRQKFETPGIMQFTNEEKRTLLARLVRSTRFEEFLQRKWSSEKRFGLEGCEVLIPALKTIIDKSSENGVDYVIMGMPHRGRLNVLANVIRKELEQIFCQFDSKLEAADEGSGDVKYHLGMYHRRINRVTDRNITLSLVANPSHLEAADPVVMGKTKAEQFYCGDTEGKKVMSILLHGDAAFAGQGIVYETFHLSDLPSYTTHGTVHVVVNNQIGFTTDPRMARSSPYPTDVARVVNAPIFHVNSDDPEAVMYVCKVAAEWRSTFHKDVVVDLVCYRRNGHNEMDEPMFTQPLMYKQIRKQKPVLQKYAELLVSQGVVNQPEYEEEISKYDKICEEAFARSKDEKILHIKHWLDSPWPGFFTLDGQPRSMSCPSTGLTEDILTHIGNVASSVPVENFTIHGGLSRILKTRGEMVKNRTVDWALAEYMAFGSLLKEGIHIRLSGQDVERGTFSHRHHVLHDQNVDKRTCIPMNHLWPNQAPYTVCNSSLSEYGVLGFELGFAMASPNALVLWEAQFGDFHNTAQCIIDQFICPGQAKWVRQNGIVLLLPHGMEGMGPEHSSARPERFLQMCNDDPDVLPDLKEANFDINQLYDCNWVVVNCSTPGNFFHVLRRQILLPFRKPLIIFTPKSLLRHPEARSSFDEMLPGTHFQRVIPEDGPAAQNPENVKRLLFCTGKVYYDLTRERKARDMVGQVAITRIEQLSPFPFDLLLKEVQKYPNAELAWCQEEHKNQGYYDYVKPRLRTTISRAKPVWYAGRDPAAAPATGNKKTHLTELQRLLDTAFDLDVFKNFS
UniProt P37198: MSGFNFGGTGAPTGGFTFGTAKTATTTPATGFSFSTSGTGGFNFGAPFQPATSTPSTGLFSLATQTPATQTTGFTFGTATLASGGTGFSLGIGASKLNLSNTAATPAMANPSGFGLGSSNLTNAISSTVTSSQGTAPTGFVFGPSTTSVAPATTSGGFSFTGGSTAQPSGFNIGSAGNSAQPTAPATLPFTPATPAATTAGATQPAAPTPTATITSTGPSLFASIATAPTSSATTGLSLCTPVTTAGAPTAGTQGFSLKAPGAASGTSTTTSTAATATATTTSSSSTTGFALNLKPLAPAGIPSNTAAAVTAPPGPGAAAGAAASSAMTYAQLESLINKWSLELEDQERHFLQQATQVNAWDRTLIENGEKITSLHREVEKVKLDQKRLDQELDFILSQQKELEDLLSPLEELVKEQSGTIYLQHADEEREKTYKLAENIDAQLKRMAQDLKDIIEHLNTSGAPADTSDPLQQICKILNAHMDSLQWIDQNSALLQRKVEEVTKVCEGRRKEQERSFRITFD
UniProt Q8TCD5: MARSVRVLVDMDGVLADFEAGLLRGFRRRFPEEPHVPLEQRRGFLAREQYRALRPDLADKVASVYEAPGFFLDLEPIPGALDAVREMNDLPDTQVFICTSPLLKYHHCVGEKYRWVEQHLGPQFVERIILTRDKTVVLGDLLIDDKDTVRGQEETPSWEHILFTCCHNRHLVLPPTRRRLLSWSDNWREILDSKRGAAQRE
UniProt Q12769: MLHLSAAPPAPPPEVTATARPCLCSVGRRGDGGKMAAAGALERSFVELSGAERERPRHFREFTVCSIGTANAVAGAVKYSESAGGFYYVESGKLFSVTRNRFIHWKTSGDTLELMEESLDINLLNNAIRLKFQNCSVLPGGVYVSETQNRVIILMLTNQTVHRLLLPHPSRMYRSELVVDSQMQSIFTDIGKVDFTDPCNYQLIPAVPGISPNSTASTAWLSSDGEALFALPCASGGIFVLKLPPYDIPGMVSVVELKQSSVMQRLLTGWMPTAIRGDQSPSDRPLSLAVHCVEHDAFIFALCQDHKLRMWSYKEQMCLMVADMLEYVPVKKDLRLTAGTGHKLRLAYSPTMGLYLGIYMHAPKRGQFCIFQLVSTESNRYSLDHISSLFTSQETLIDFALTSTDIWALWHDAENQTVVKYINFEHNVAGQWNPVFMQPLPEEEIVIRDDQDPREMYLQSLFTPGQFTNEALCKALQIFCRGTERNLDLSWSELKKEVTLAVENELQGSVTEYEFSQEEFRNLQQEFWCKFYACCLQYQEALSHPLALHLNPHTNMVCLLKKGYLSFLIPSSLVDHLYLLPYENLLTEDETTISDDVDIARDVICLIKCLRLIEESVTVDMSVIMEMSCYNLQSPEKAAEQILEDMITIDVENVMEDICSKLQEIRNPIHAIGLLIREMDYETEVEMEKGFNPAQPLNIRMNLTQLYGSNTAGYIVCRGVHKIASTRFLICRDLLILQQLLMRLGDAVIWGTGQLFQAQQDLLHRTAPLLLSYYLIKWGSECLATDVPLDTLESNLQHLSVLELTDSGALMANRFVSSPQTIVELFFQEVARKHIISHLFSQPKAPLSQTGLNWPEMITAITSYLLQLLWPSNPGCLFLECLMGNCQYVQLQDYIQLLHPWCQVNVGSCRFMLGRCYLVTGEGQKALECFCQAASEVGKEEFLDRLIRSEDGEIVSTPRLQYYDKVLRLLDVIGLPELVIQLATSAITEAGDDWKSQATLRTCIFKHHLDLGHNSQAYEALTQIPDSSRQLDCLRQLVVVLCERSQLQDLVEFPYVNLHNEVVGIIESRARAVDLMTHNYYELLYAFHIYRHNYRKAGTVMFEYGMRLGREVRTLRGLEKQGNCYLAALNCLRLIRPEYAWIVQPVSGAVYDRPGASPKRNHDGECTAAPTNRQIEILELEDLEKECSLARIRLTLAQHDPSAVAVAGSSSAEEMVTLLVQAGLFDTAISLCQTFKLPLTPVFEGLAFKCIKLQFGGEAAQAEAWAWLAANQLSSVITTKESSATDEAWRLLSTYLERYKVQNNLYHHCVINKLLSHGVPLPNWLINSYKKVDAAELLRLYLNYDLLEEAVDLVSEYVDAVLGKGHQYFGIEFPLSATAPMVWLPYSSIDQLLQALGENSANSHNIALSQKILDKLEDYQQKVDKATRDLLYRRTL
UniProt Q02818: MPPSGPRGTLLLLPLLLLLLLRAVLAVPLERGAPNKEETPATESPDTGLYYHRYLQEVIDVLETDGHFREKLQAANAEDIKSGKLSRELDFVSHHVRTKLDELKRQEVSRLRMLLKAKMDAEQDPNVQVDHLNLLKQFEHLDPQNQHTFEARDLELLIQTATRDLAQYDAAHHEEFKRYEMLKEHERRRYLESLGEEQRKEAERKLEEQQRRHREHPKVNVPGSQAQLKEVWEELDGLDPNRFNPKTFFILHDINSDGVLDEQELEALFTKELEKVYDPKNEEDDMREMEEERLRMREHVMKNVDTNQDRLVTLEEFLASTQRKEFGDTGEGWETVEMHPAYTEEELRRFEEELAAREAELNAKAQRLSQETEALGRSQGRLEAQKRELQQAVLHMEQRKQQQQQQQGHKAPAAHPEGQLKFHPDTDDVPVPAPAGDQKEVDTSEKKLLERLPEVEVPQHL
UniProt Q5SWX8: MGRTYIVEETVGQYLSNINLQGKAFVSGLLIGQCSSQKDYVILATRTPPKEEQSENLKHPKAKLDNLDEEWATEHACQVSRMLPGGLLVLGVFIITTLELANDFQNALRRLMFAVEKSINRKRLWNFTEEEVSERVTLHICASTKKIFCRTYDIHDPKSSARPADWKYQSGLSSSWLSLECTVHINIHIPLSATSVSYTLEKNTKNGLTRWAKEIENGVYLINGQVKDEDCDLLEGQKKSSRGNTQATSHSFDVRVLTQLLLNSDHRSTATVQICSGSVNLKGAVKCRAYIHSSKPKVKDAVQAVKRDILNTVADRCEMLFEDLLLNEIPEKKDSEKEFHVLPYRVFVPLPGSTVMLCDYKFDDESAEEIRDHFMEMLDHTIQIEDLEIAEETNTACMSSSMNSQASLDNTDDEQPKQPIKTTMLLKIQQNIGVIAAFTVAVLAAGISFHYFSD
UniProt Q8WVJ2: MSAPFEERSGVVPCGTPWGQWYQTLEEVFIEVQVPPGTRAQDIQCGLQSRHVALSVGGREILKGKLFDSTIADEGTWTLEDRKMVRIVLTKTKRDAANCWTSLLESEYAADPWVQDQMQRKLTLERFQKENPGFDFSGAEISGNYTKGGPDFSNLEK
UniProt P53384: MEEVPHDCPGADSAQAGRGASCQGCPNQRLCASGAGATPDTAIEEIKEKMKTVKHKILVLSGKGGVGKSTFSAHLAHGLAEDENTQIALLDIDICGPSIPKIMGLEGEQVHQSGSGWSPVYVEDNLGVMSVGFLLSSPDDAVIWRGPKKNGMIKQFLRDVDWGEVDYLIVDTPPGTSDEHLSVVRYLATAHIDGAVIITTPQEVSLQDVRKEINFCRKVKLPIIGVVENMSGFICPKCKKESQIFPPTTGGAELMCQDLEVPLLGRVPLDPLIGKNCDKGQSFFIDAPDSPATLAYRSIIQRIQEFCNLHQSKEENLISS
UniProt O60890: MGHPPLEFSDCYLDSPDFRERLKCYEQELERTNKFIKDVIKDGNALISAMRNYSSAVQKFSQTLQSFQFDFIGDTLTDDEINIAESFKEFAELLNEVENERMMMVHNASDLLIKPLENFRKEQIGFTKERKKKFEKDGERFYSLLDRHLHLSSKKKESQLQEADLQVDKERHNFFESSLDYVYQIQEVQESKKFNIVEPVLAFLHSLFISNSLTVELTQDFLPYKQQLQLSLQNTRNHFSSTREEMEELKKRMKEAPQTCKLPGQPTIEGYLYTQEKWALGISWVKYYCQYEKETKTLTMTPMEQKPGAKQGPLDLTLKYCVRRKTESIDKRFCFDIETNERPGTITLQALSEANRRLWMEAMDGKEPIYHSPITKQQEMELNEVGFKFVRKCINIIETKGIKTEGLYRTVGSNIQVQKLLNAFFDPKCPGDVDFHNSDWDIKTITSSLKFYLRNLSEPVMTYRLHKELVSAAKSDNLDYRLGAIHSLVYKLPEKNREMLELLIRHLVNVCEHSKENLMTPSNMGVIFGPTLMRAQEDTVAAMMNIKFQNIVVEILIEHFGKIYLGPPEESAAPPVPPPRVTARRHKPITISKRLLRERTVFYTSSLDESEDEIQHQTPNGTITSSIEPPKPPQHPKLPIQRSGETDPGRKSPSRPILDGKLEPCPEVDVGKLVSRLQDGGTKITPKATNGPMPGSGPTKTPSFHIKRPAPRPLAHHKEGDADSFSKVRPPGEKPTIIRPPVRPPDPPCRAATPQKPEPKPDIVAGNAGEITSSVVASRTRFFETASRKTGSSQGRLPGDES
UniProt Q9NZJ9: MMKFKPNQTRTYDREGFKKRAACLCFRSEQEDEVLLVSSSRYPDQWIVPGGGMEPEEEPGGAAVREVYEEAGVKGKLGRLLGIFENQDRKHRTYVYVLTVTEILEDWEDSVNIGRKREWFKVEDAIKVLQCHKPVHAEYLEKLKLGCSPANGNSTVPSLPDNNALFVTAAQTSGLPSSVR
UniProt Q9Y5Y2: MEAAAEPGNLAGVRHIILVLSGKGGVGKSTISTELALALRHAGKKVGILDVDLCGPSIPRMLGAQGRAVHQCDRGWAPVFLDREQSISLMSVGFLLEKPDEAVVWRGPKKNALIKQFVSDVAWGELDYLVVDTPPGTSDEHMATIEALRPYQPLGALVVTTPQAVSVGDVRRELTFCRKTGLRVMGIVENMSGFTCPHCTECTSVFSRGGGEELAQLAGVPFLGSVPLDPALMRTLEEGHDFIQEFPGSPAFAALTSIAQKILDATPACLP
UniProt Q32P28: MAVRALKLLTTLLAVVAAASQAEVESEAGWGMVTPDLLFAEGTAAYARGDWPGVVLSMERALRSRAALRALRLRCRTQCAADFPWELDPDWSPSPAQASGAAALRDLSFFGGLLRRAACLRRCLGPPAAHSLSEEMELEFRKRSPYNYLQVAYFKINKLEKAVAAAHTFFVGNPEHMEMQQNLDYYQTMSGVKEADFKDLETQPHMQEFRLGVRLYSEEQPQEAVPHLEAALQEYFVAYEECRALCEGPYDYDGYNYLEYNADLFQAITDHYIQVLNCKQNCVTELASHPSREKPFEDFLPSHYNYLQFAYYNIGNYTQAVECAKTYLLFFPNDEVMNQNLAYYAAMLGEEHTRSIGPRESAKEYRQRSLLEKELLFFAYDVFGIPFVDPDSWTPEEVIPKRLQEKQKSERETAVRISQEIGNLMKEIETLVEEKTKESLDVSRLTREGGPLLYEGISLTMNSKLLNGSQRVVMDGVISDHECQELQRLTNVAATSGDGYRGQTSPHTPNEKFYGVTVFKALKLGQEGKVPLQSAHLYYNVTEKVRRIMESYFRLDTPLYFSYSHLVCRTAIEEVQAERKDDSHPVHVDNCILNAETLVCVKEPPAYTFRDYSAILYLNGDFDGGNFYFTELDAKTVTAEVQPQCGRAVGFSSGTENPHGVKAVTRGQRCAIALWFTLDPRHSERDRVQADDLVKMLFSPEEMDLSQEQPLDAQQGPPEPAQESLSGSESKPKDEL

[2] = compound: C/C(=N\NC(=O)C1=CC(=CC=C1)S(=O)(=O)N2CCOCC2)/C3=C(C=CC(=C3)Cl)O
How it was run: as §1

[3] = compound: C1=CC(=C(C=C1Cl)C2=NC3=NC=CN=C3C(=N2)NC4=CC=NC=C4)F
How it was run: as §1

[4] = compound: C1=CC(=CC=C1C2=NC3=C(N2)C=C(C=C3)C(=O)N)OC4=CC=C(C=C4)Cl
How it was run: as §1

[5] = compound: C1=CC2=C(C=CC(=C2)/C=C\3/C(=O)NC(=NCC4=CC=CS4)S3)N=C1
How it was run: as §1

[6] = compound: C1=CC2=NC=CN=C2C=C1/C=C/3\C(=O)NC(=O)S3
How it was run: as §1

[7] = compound: C1=CC=C(C=C1)C2=NC(=C(N2)C3=CC=NC=C3)C4=CC(=C(C=C4)Cl)O
How it was run: as §1

[8] = compound: C1=CC=C2C(=C1)C3=NNC4=CC=CC(=C43)C2=O
How it was run: as §1

[9] = compound: C1CCN(C1)C(=O)NC2=CC=CC(=C2)NC3=NC=C(C(=N3)NCCC4=CN=CN4)Br
How it was run: as §1

[10] = compound: C1CN(CCC1(CC2=CC=C(C=C2)Cl)N)C3=NC=NC4=C3C=CN4
How it was run: as §1

Measured: log2 fold change

OSTC (UniProt Q9NRP0)
inactive: [1] 0.021 | [2] 0.024 | [3] 0.022 | [4] 0.017 | [5] 0.004 | [6] -0.001 | [7] 0.014 | [8] 0.048 | [9] -0.041 | [10] 0.088

OSTM1 (UniProt Q86WC4)
inactive: [1] 0.034 | [2] 0.111 | [3] 0.077 | [4] 0.107 | [5] -0.106 | [6] 0.001 | [7] 0.044 | [8] -0.047 | [9] -0.035 | [10] -0.002

PABPC1 (UniProt P11940)
inactive: [1] -0.133 | [2] -0.006 | [3] -0.152 | [4] 0.088 | [5] -0.045 | [6] 0.002 | [7] -0.062 | [8] -0.098 | [9] 0.052 | [10] -0.077

OGDH (UniProt Q02218)
inactive: [1] -0.134 | [2] 0.005 | [3] -0.033 | [4] 0.108 | [5] -0.024 | [6] 0.065 | [7] 0.046 | [8] 0.138 | [9] -0.051 | [10] -0.026

NUP93 (UniProt Q8N1F7)
inactive: [1] 0.007 | [2] 0.066 | [3] -0.037 | [4] -0.007 | [5] 0.035 | [6] 0.033 | [7] -0.003 | [8] -0.111 | [9] -0.044 | [10] -0.095

NUP153 (UniProt P49790)
inactive: [1] 0.012 | [2] -0.01 | [3] -0.06 | [4] 0.012 | [5] -0.029 | [6] 0.054 | [7] -0.046 | [8] -0.141 | [9] -0.059 | [10] -0.003

NUP62 (UniProt P37198)
inactive: [1] 0.06 | [2] 0.069 | [3] -0.003 | [4] -0.014 | [5] 0.027 | [6] 0.094 | [7] 0.004 | [8] -0.002 | [9] -0.055 | [10] -0.089

PA2G4 (UniProt Q9UQ80)
inactive: [1] -0.009 | [2] 0.036 | [3] 0.094 | [4] 0.013 | [5] -0.014 | [6] 0.011 | [7] 0.021 | [8] 0.046 | [9] -0.001 | [10] -0.079

NT5C (UniProt Q8TCD5)
inactive: [1] 0.043 | [2] 0.001 | [3] 0.008 | [4] 0.043 | [5] -0.017 | [6] 0.018 | [7] 0.026 | [8] -0.049 | [9] 0.014 | [10] 0.036

NUP160 (UniProt Q12769)
inactive: [1] 0.001 | [2] 0.022 | [3] 0.01 | [4] -0.024 | [5] -0.006 | [6] 0.045 | [7] -0.017 | [8] -0.091 | [9] -0.085 | [10] -0.025

ORC3 isoform 2 (UniProt Q9UBD5)
inactive: [1] 0.134 | [2] -0.068 | [3] -0.024 | [4] -0.021 | [5] 0.214 | [6] 0.042 | [7] 0.013 | [8] 0.072 | [9] -0.013 | [10] 0.07

NUCB1 (UniProt Q02818)
inactive: [1] -0.015 | [2] 0.015 | [3] 0.067 | [4] 0 | [5] -0.008 | [6] 0.033 | [7] -0.037 | [8] -0.019 | [9] -0.009 | [10] 0.031

NUDT5 (UniProt Q9UKK9)
inactive: [1] 0.024 | [2] -0.003 | [3] 0.075 | [4] 0.043 | [5] -0.066 | [6] 0.032 | [7] 0.086 | [8] -0.008 | [9] 0.029 | [10] 0.039

ODR4 (UniProt Q5SWX8)
inactive: [1] 0.046 | [2] -0.018 | [3] 0.015 | [4] -0.004 | [5] 0.094 | [6] 0.019 | [7] 0.048 | [8] 0.012 | [9] -0.051 | [10] 0.059

NUDCD2 (UniProt Q8WVJ2)
inactive: [1] 0.054 | [2] -0.003 | [3] 0.019 | [4] -0.071 | [5] 0.025 | [6] 0.018 | [7] -0.014 | [8] 0.012 | [9] -0.107 | [10] -0.08

NUP54 (UniProt Q7Z3B4)
inactive: [1] 0.093 | [2] 0.077 | [3] 0.018 | [4] -0.03 | [5] 0.057 | [6] 0.015 | [7] 0.033 | [8] 0.035 | [9] -0.006 | [10] -0.021

NUP214 isoform 5 (UniProt P35658)
inactive: [1] 0.001 | [2] -0.002 | [3] -0.199 | [4] -0.021 | [5] -0.001 | [6] 0.031 | [7] -0.05 | [8] 0.037 | [9] 0.014 | [10] -0.084

NSRP1 (UniProt Q9H0G5)
inactive: [1] -0.039 | [2] -0.02 | [3] -0.196 | [4] 0.063 | [5] -0.169 | [6] -0.024 | [7] -0.097 | [8] 0.042 | [9] 0.012 | [10] -0.076

Reprinted from the listing (6 entries):
NUDT5 (UniProt Q9UKK9)
inactive: [1] 0.024 | [2] -0.003 | [3] 0.075 | [4] 0.043 | [5] -0.066 | [6] 0.032 | [7] 0.086 | [8] -0.008 | [9] 0.029 | [10] 0.039

ODR4 (UniProt Q5SWX8)
inactive: [1] 0.046 | [2] -0.018 | [3] 0.015 | [4] -0.004 | [5] 0.094 | [6] 0.019 | [7] 0.048 | [8] 0.012 | [9] -0.051 | [10] 0.059

NUDCD2 (UniProt Q8WVJ2)
inactive: [1] 0.054 | [2] -0.003 | [3] 0.019 | [4] -0.071 | [5] 0.025 | [6] 0.018 | [7] -0.014 | [8] 0.012 | [9] -0.107 | [10] -0.08

NUP54 (UniProt Q7Z3B4)
inactive: [1] 0.093 | [2] 0.077 | [3] 0.018 | [4] -0.03 | [5] 0.057 | [6] 0.015 | [7] 0.033 | [8] 0.035 | [9] -0.006 | [10] -0.021

NUP214 isoform 5 (UniProt P35658)
inactive: [1] 0.001 | [2] -0.002 | [3] -0.199 | [4] -0.021 | [5] -0.001 | [6] 0.031 | [7] -0.05 | [8] 0.037 | [9] 0.014 | [10] -0.084

NSRP1 (UniProt Q9H0G5)
inactive: [1] -0.039 | [2] -0.02 | [3] -0.196 | [4] 0.063 | [5] -0.169 | [6] -0.024 | [7] -0.097 | [8] 0.042 | [9] 0.012 | [10] -0.076

Further records

NUBP1 (UniProt P53384)
inactive: [1] 0.169 | [2] 0.045 | [3] 0.049 | [4] 0.003 | [5] 0.069 | [6] 0.02 | [7] -0.003 | [8] 0.037 | [9] 0.002 | [10] -0.014

OPHN1 (UniProt O60890)
inactive: [1] 0.022 | [2] -0.155 | [3] 0.101 | [4] -0.009 | [5] 0.24 | [6] 0.03 | [7] -0.007 | [8] 0.039 | [9] 0.044 | [10] 0.04

NUDT17 (UniProt P0C025)
inactive: [1] -0.099 | [2] 0.098 | [3] -0.04 | [4] 0.111 | [5] -0.058 | [6] -0.186 | [7] 0.1 | [8] -0.066 | [9] -0.058 | [10] -0.053

NUCB2 (UniProt P80303)
inactive: [1] -0.021 | [2] -0.011 | [3] 0.026 | [4] 0.007 | [5] 0.011 | [6] 0.047 | [7] -0.051 | [8] -0.001 | [9] -0.017 | [10] 0.031

NUP58 (UniProt Q9BVL2)
inactive: [1] -0.024 | [2] 0.033 | [3] -0.015 | [4] -0.023 | [5] 0.067 | [6] 0.01 | [7] -0.076 | [8] -0.039 | [9] 0.009 | [10] 0.009

OPTN (UniProt Q96CV9)
inactive: [1] 0.08 | [2] -0.036 | [3] 0.168 | [4] -0.03 | [5] 0.014 | [6] 0.213 | [7] 0.093 | [8] -0.007 | [9] -0.049 | [10] 0.028

NUDT4 (UniProt Q9NZJ9)
inactive: [1] 0.046 | [2] 0.083 | [3] 0.021 | [4] -0.013 | [5] -0.021 | [6] -0.022 | [7] 0.008 | [8] -0.011 | [9] 0.003 | [10] -0.13

NSUN7 (UniProt Q8NE18)
inactive: [1] 0.066 | [2] -0.274 | [3] -0.067 | [4] -0.046 | [5] 0.187 | [6] 0.051 | [7] -0.2 | [8] -0.029 | [9] 0.063 | [10] -0.142

P2RX4 isoform 2 (UniProt Q99571)
inactive: [1] 0.162 | [2] -0.037 | [3] 0.062 | [4] -0.101 | [5] -0.057 | [6] -0.068 | [7] 0.02 | [8] 0.082 | [9] -0.051 | [10] 0.126

NUBP2 (UniProt Q9Y5Y2)
inactive: [1] 0.042 | [2] 0.011 | [3] 0.039 | [4] 0.009 | [5] 0.057 | [6] 0.002 | [7] 0.045 | [8] -0.005 | [9] 0.013 | [10] 0.076

P3H1 (UniProt Q32P28)
inactive: [1] -0.075 | [2] -0.087 | [3] -0.092 | [4] 0.017 | [5] -0.005 | [6] -0.021 | [7] -0.016 | [8] -0.025 | [9] 0.01 | [10] -0.053

OS9 (UniProt Q13438)
inactive: [1] -0.024 | [2] -0.046 | [3] -0.037 | [4] 0.03 | [5] 0.026 | [6] 0.019 | [7] -0.016 | [8] -0.03 | [9] -0.003 | [10] -0.007
